No constants are given. Whether binding was seen depends on the method and setting. Some entries that bind do so weakly or less than the wild type. Tags and fused reporters may be left off the sequences shown.
T1: recombinant GST-EGFL7 protein (UniProt Q9UHF1 24-273)
T1 construct: Expressed in Sf21 insect cells by baculovirus and purified on glutathione-agarose; The sense primer encodes MRGSQEV, which fits human EGFL7; also called purified EGFL7 protein; recombinant EGFL7; not shown: glutathione-S-transferase (GST) tag from the pDEST20 plasmid (Invitrogen); TEV site/linker region carried over from pENTR/TEV/D-TOPO
T1 sequence (looked up): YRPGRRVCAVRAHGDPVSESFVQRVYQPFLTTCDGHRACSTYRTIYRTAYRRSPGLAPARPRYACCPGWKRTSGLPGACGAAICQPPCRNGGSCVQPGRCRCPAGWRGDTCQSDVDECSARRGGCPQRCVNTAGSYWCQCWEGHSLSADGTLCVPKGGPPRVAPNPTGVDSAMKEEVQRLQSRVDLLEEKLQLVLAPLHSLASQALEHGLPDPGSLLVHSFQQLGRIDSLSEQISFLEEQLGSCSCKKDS


Target: T1, recombinant GST-EGFL7 protein
Assay: OBOC bead library screen with GST-EGFL7 on magnetic beads, then cell-based screen with EGFL7-positive and EGFL7-negative cells

binding, binds:
DPYDHEFR
RYVDHEDW
AYYEEAYE
WYKLHPTM
RYQLHHPR
EWELHAEE
HMYFLLGH
SQSSMYPS

Source: patent US20150071855A1 (LONDON HEALTH SCIENCES CENTRE RESEARCHING, published 2015)
